Measurements as given in publication PMC12334247.
Results are given in words; binding and its absence hold for the method and conditions named. For some of these results: Binding calls can cover weak binding; strength is not graded here. Tags and fused reporters may be left off the sequences shown.

Tests used:
Experiment in all cases: two-hybrid; yeast strain PJ694-a; fusions to AD (pDEST22) and BD (pDEST32); -Leu/-Trp selects co-transformation, -Leu/-Trp/-His/-Ade selects for strong interaction
[1] = target: T1, Armadillo BTB Arabidopsis protein 1 (ABAP1), yeast two-hybrid fusion (Arabidopsis thaliana) (UniProt B7U179)
T1 sequence: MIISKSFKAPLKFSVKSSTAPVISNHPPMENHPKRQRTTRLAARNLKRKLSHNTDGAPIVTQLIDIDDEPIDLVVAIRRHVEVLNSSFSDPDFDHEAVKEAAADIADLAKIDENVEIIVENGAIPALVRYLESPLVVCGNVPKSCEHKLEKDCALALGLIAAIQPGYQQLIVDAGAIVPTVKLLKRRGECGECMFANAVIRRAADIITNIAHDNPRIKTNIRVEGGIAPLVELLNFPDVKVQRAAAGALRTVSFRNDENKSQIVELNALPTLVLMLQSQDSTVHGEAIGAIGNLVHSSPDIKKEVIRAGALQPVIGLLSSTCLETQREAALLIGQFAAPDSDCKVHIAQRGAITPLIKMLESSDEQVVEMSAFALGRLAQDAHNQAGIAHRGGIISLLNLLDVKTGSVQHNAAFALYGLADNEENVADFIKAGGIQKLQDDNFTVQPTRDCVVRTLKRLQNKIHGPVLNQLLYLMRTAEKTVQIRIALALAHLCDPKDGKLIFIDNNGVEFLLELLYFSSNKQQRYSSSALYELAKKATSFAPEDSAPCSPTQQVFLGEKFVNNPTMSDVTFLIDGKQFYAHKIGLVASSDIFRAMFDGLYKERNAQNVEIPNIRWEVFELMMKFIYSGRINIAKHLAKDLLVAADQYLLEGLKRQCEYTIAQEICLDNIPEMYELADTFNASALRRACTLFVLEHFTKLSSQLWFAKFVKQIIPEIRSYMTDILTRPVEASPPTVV

[2] = target: T2, ORC3 (origin recognition complex subunit 3), yeast two-hybrid fusion (Arabidopsis thaliana) (UniProt Q6E7H0)
T2 sequence: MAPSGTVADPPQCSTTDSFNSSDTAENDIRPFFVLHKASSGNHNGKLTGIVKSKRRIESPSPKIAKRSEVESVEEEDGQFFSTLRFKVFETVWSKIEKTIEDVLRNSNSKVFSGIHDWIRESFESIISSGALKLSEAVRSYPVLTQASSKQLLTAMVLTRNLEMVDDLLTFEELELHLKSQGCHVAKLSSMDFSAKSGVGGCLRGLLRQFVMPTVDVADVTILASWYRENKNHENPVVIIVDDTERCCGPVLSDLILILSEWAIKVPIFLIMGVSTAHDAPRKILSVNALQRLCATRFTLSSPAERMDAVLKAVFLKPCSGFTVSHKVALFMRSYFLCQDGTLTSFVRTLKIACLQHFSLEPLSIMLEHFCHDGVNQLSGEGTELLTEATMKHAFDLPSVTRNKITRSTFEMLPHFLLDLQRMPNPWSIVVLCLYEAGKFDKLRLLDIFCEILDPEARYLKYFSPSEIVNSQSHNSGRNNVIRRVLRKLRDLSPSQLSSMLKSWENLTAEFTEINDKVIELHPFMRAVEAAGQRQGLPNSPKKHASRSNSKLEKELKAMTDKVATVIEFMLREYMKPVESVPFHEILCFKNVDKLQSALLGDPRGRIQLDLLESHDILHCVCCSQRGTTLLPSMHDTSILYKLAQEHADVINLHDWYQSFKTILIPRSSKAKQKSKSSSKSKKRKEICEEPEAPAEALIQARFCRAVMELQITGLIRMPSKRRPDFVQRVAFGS

[3] = target: T3, ORC5 (origin recognition complex subunit 5), yeast two-hybrid fusion (Arabidopsis thaliana) (UniProt Q6EWX0)
T3 sequence: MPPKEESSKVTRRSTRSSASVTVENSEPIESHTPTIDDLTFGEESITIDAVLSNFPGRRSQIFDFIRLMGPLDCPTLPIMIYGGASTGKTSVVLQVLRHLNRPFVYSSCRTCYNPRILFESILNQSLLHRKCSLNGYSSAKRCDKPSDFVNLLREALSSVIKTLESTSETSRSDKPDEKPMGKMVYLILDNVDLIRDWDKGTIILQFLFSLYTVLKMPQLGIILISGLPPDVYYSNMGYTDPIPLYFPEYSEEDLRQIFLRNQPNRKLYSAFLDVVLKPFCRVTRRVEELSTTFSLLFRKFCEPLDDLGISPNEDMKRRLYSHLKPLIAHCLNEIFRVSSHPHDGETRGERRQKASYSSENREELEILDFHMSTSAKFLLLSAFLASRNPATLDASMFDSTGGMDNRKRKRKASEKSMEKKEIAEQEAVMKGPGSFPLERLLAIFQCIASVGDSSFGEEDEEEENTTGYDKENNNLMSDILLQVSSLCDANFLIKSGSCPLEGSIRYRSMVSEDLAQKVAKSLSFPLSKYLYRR

[4] = target: T4, ORC6 (origin recognition complex subunit 6), yeast two-hybrid fusion (Arabidopsis thaliana) (UniProt Q9ZVH3)
T4 sequence: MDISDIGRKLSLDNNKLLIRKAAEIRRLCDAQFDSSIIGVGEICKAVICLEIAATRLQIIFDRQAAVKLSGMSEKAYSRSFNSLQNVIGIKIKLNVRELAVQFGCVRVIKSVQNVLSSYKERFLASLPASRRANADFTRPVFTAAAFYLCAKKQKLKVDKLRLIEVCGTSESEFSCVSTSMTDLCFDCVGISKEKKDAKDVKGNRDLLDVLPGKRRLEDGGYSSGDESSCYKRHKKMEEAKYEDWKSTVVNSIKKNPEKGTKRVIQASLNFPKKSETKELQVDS

binding [1]: binds
binding [2]: no binding
binding [3]: no binding
binding [4]: no binding
Substance: ABAP1 interacting protein 10 (AIP10), yeast two-hybrid fusion (Arabidopsis thaliana)
